According to PubChem BioAssay AID652054 (National Center for Advancing Translational Sciences (NCATS), 2013):
Screen size: about 360,000 compounds; about 9,100 (2.5%) were called active. The inconclusive results got no clear call from the source; some entries with a clear call stand among them for comparison. Cut-off read from the data, not from the text of the source: active = max response below about -50%; inconclusive = no clear call, values can overlap the other calls; inactive = above that.

Chains of the proteins cited; added tags and fusions are not shown.
UniProt P35462, whole entry, looked up: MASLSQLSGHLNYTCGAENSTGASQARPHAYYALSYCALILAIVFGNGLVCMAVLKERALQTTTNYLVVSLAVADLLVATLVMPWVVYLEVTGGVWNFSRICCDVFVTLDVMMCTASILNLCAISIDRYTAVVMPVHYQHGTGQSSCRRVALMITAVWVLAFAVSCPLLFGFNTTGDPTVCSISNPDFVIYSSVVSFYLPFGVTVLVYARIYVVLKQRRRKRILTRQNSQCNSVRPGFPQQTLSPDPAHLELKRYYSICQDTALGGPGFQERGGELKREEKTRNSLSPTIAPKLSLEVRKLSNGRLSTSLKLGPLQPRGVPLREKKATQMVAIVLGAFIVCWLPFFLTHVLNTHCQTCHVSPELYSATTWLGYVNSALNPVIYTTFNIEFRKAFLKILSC

Biological target: D(3) dopamine receptor (Homo sapiens) (UniProt P35462)
Experiment: qHTS of D3 Dopamine Receptor Antagonist: qHTS
Conditions: D3R cells, DiscoveRx beta-arrestin luminescence, antagonist mode; active compounds read low
Method in brief: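 Cells expressing the human receptor were seeded at 1500 cells/well, incubated overnight at 37 degrees C in 5% CO2, then exposed to library compounds with dopamine controls for 90 minutes at 37 degrees C before luminescent detection.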
% is set by controls: 0 for no effect and ±100 for the full control effect.

Row | Compound | max response, negative = inhibition
1 | CN(C)C(CNC(=O)c1cc2ccccc2o1)c1ccco1 (stereo unspecified) | inconclusive: -39.4%
2 | CCOC(=O)c1c(N)sc2c(NC(C)=O)cccc12 | active: -80.7%
3 | COc1cc([N+](=O)[O-])c(OC)cc1SCc1n[nH]c(=S)n1-c1ccc(F)cc1 | inconclusive: -39.8%
4 | CCCN(CCC)CCCNC(=O)c1cc2c(-c3ccc(OC)c(OC)c3)nn(C)c2s1 | active: -91.7%
5 | Cc1ccccc1C(=O)N1CCN(S(=O)(=O)c2ccccc2)CC1 | inconclusive: -36%
6 | Cc1ccc([N+](=O)[O-])c(OCCN2CCC(Cc3ccccc3)CC2)c1 | active: -83.3%
7 | CCCOc1cc(C)c(S(=O)(=O)N2CCN(C)CC2)cc1C | inconclusive: -44.5%
8 | Cc1cc(C(C)(C)C)cc(S(=O)(=O)NCCO)c1C | inconclusive: -37.8%
9 | Nn1cnnc1N/N=C/c1cc(Br)cc(Br)c1O | active: -90%
10 | CCC(C(=O)NCCCN1CC(C)CC(C)C1)n1ncn2c(cc3occc32)c1=O (stereo unspecified) | inconclusive: -35%
11 | O=C(Nc1ccccc1Cl)c1ccc(Cl)cc1Cl | inactive: -1.06%
12 | COc1ccc(-c2ccc(C(=O)O)o2)c([N+](=O)[O-])c1 | inconclusive: -31.1%
13 | O=C(NCCCCNCCCNC(=O)c1ccccc1)c1ccccc1 | active: -50.7%
14 | CC1(C(=O)Nc2ccc3c(c2)OCO3)CCN1C(=O)CCc1ccc(Cl)cc1Cl (stereo unspecified) | inactive: 9.84%
15 | O=C(C1CCCN1S(=O)(=O)c1cccc2cccnc12)N1CCn2c1nc1ccccc12 (stereo unspecified) | inconclusive: -43.3%
16 | c1ccc(COc2ccc(OCCCNC3CCCC3)cc2)cc1 | inconclusive: -49%
17 | CCOC(=O)C(=CNc1cc(C)nn1-c1ccc(C)cc1)C(=O)OCC | inactive: 47.8%
18 | COCC1CCCN(Cc2cn(-c3ccccc3F)nc2-c2cc(C)sc2C)C1 (stereo unspecified) | active: -70.8%
19 | Cc1cc(C)c(S(=O)(=O)Nc2ccc3c4c(cccc24)CC3)c(C)c1 | inconclusive: -38.6%

Row | Compound | max response, negative = inhibition
20 | COc1cc(-c2n[nH]c(=S)n2-c2ccccc2C(F)(F)F)cc(OC)c1OC | inconclusive: -32.2%
21 | FC(F)(F)c1ccccc1Cc1c(-c2ccccc2)nc2ccc(Cl)cn12 | inactive: 23.7%
22 | CCOc1cc([N+](=O)[O-])cc(/C=C2/NC(=O)N(Cc3ccccc3F)C2=O)c1O | inconclusive: -40.7%
23 | COc1ccc(CN(C)C(=O)CNC(=O)Cc2cccc3ccccc23)c(OC)c1OC | inactive: -2.85%
24 | COc1cc(C2C(C(=O)c3ccco3)=C(O)C(=O)N2CCc2ccccc2)ccc1O (stereo unspecified) | inconclusive: -37.9%
25 | C=CCC(Nc1ccccc1)c1cccc(OC)c1OC (stereo unspecified) | inconclusive: -40%
26 | COc1ccccc1CNC(=O)CCCC(=O)n1ncc2cc(C)ccc21 | inconclusive: -33.5%
27 | C=CCNC(=O)C1CC1(c1ccccc1)c1ccccc1 (stereo unspecified) | inconclusive: -35.4%
28 | COc1ccc(C2=NS(=O)(=O)N(C)C(C(=O)N3CCOCC3)=C2)cc1OC | inconclusive: -31.3%
29 | COc1ccc(C(CNC(=O)c2oc3ccccc3c2C)N2CCCC2)cc1 (stereo unspecified) | inconclusive: -45.7%
30 | CCCN1C(=O)c2cccc3c(N4CCCCC4)ccc(c23)C1=O | inactive: -7.81%
31 | O=C(NC(=S)NC1C2CC3CC(C2)CC1C3)C12CC3CC(CC(C3)C1)C2 (stereo unspecified) | inconclusive: -34.3%
32 | Cc1ccc(S(=O)(=O)N[C@@H](C)CO)cc1 | inactive: 3.05%
33 | Cc1cc2nc(-c3ccco3)c(Cc3cccc(Cl)c3)n2c(C)c1Br | inconclusive: -43.9%
34 | FC(F)(F)c1ccccc1/C=N/N1CCN(Cc2ccccc2)CC1 | active: -66.2%
35 | COc1ccccc1N1CCN(S(=O)(=O)c2c[nH]c(=O)[nH]c2=O)CC1 | inconclusive: -41.6%
36 | O=C(NCc1ccccc1)c1ccc(CN2CCC(Cc3ccccc3)CC2)cc1 | inconclusive: -47.3%
37 | S=c1[nH]nc(-c2cc3ccccc3o2)n1Cc1ccccc1 | inconclusive: -35.1%
38 | COCCNC(=O)c1noc2c1CCc1cc(OC)ccc1-2 | inconclusive: -33.5%

Single values from the list.
In max response, negative = inhibition, CCOc1cc([N+](=O)[O-])cc(/C=C2/NC(=O)N(Cc3ccccc3F)C2=O)c1O reads inconclusive: -40.7%
In max response, negative = inhibition, O=C(NCc1ccccc1)c1ccc(CN2CCC(Cc3ccccc3)CC2)cc1 reads inconclusive: -47.3%
In max response, negative = inhibition, COc1cc(-c2n[nH]c(=S)n2-c2ccccc2C(F)(F)F)cc(OC)c1OC reads inconclusive: -32.2%

The list goes on:

Row | Compound | max response, negative = inhibition
39 | Cc1ccc(CN2CCNC(=O)C2CC(=O)N(C)CCc2ccccc2)cc1 (stereo unspecified) | inconclusive: -33.3%
40 | CC1CC2=C(C(=O)O1)C(c1ccc(Cl)cc1)Nc1ccccc1N2 (stereo unspecified) | active: -52.1%
41 | CC(C)C(NC(=O)C12CC3CC(CC(C3)C1)C2)C(=O)N/N=C/C1=C(N2CCOCC2)C(=C\c2cccc([N+](=O)[O-])c2)/CC1 (stereo unspecified) | inconclusive: -32%
42 | O=C(NCc1nnc2c(C(F)(F)F)cc(Cl)cn12)c1cccs1 | inactive: -8.32%
43 | COc1cc2ccccc2cc1C(=O)N(CCN(C)C)c1nc2ccc(Br)cc2s1 | inconclusive: -32.7%
44 | O=C(NCCCN1CCN(c2ccc(F)cc2)CC1)C1CCCN(c2ncnc3c2nc2n3CCCCC2)C1 (stereo unspecified) | active: -55.1%
45 | CC(C)(C)NS(=O)(=O)c1ccc2[nH]c3c(c2c1)CCCCC3 | inconclusive: -33.2%
46 | CC1(C)CC(N2CN(C3CCCCC3)CC2=O)CC(C)(C)N1 | inconclusive: -48.4%
47 | Cc1ccc2nc(NC(=O)c3ccccn3)sc2c1 | inconclusive: -39.8%
48 | O=C(NCCc1nnc2ccc(NCCCN3CCOCC3)nn12)c1ccccc1 | inconclusive: -31.8%
49 | Cc1ccccc1NC(=O)C1c2cccc[n+]2CC(=O)N1c1c(C)cccc1C (stereo unspecified) | inconclusive: -43.9%
50 | CC(=O)Nc1cccc(/C(C)=N/NS(=O)(=O)c2ccccc2)c1 | inconclusive: -35.4%
51 | N=C1S/C(=C\c2cccc3ccccc23)C(=O)N1c1ccc(F)cc1 | inconclusive: -32.3%
52 | CCN(c1ccccc1)S(=O)(=O)c1ccc(Cl)c(NC(=O)CSc2n[nH]c(N)n2)c1 | inconclusive: -32.3%
53 | O=C(NNC(=S)NC1CCCCC1)c1sc2ccccc2c1Cl | active: -64%
54 | O=C(CCc1nc(-c2ccccc2F)no1)NCCN1CCc2ccccc2C1 | inconclusive: -40.6%
55 | O=[N+]([O-])c1cc(S(=O)(=O)Nc2ccc(Cl)cc2)ccc1N/N=C/c1ccncc1 | inconclusive: -40.7%
56 | CCC(=O)c1cn(CC(=O)NCc2ccco2)c2ccccc12 | inconclusive: -41.2%
